Laboratory results: patent US20010027175A1, “Use of certain drugs for treating nerve root injury” (priority 1998, published 2001)
For at least one compound, name, drawing or mass did not settle the structure.

What was measured:
[1] = system: nucleus pulposus-related effects on adjacent nerve roots; settings: literature refs 38, 2, 3, 69; cited from earlier work
[2] = system: nucleus pulposus-induced reduction of nerve root conduction velocity (sacrococcygeal cauda equina); assay: Series-2: nerve root conduction velocity three days after autologous nucleus pulposus application to the cauda equina; assay type: in vivo; settings: pig, compared with no treatment-series, Student's t-test
Experimental: Series-2: Nucleus pulposus was harvested from lumbar discs and applied to the sacrococcygeal cauda equina in 13 pigs autologously. […] Three days after the application the nerve root conduction velocity was determined over the application zone by local electrical stimulation.
Thirteen pigs, (body weight 25-30 kg) received an intramuscular injection of 20 mg/kg body weight of Ketala (ketamine 50 mg/ml, Parke-Davis, Morris Plains, N.J.) and an intravenous injection of 4 mg/kg body weight of Hypnodil^R (methomidate chloride 50 mg/ml, AB Leo, Helsingborg, Sweden) and 0.I mg/kg body weight of Stresnil^R (azaperon 2 mg/ml, Janssen Pharmaceutica, Beerse, Belgium). […]
Three days after the application, the pigs were reanaesthetized by an intramuscular injection of 20 mg/kg body weight of Ketalar^R and an intravenous injection of 35 mg/kg body weight of Pentothal^R (Thiopental sodium, Abbott lab, Chicago, Ill.). […] Local tissue temperature was continuously monitored and maintained at 37.5-38.0° C. by means of a heating lamp. […]
The person performing the neurophysiologic analyses was unaware of the experimental protocol for the individual animal, and after finishing the complete study the data were arranged in the three experimental groups and statistical differences between the groups were assessed by Student's t-test. […]

Row | SMILES | block of nucleus pulposus-related effects (in words) [1] | block of nucleus pulposus-induced reduction in nerve conduction velocity (in words) [2]
1 | C[C@H]1C[C@@H]2[C@H]([C@@H](O)C[C@@]3(C)[C@H]2CC[C@]3(O)C(=O)CO)[C@@]2(C)C=CC(=O)C=C12 [methylprednisolone] | blocked efficiently | 
2 | C[C@H]1c2cccc(O)c2C(=O)C2=C(O)[C@]3(O)C(=O)C(C(N)=O)=C(O)[C@@H](N(C)C)[C@@H]3[C@@H](O)[C@@H]21 [Doxycycline, doxycycline] |  | completely blocked this reduction
